Patent US20250282861A1 (SYDDANSK UNIVERSITET, published 2025)
Results are given in words; binding and its absence hold for the method and conditions named. Some results given as binding are weak or reduced against the parent protein; the word gives no strength.

Target: T1, rat MFAP4 (rat) (UniProt Q497C9)
T1 sequence: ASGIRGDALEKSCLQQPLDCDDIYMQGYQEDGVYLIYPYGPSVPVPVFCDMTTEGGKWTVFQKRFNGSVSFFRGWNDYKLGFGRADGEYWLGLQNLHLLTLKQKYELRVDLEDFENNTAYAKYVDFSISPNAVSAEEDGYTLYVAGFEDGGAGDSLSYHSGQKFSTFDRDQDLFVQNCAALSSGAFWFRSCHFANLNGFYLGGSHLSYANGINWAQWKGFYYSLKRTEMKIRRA
Assay: sandwich ELISA, biotinylated detection antibody at 0.5 µg/ml

- binding: binds
B1: HG Hyb 7-14 murine monoclonal antibody raised against human recombinant MFAP4 (antibody, mouse IgG1, V domains shown)
VH: EVKVVESGGGLVQPGGSLRLSCATSGFTFSDFYMEWVRQPPGKRLEWIAASRNKANDYTTEYSASVKGRFIVSRDTSQSILYLQLNALRAEDTAIYYCARNYYDSSYWYFDVWGAGTTVTVSS
VL: DIVLTQSPSYLAASPGETITINCRASKSISKYLAWYQERPGKTNKLLIYSGSTLQSGIPSRFSGSGSGTDFTLTISSLEPEDFAMYYCQQHNEYPFTFGAGTKLELK
